Source: PubChem BioAssay AID330 (DTP/NCI, 2004)
The list does not hold the whole screen: it is rich in T/C values a quarter to a half above the control, in often repeated tests (any T/C) and in doses without a T/C. Further doses and runs are listed elsewhere. T/C: endpoint of the treated group in % of that of the vehicle group. Some entries give survivors of the animals treated and no T/C: the source holds a T/C of zero for them, seemingly a mark for toxic or unscored doses. Some survivor counts are full or nearly so, which does not show that the dose was tolerated: survival well below the control is almost never listed, so the zero probably covers shortened survival too. Counts of survivors are from the toxicity check (mostly the fifth day) where no day follows; animals may have died later. Schedules are NCI's codes, taken here to give the interval after Q, in days (D) or hours (H), and the number of doses after X. Some entries were tested several times; their values stand side by side, smallest first. Where survival is the endpoint, the PubChem record calls one and a half times the control and up active, and a quarter to a half above the control has no call in these data; cut-offs in other NCI protocols can differ. Some T/C values carry the count of animals alive at the toxicity check (mostly the fifth day); where none is given, no animal had died by that day. Signs of the kind (2×) count equal records among those shown.

Test system: P388 leukemia ip, CD2F1 mice, survival T/C
Assay: NCI In Vivo Anticancer Drug Screen. Data for tumor model P388 Leukemia (intraperitoneal) in CD2F1 (CDF1) mice
Conditions: T/C endpoint: median survival time, higher T/C = longer survival
[1] = dose: 50.0 mg/kg/injection, schedule: Q01DX009 (ip), vehicle: saline with Tween-80
[2] = dose: 100.0 mg/kg/injection, schedule: Q01DX009 (ip), vehicle: saline with Tween-80
[3] = dose: 200.0 mg/kg/injection, schedule: Q01DX009 (ip), vehicle: saline with Tween-80
[4] = dose: 100.0 mg/kg/injection, schedule: Q01DX005 (ip), vehicle: saline with Tween-80
[5] = dose: 200.0 mg/kg/injection, schedule: Q01DX005 (ip), vehicle: saline with Tween-80
[6] = dose: 50.0 mg/kg/injection, schedule: Q01DX005 (ip), vehicle: Klucel (hydroxypropylcellulose) (HPC)
[7] = dose: 100.0 mg/kg/injection, schedule: Q01DX005 (ip), vehicle: Klucel (hydroxypropylcellulose) (HPC)
[8] = dose: 200.0 mg/kg/injection, schedule: Q01DX005 (ip), vehicle: Klucel (hydroxypropylcellulose) (HPC)
[9] = dose: 100.0 mg/kg/injection, schedule: Q01DX009 (ip), vehicle: Klucel (hydroxypropylcellulose) (HPC)
[10] = dose: 200.0 mg/kg/injection, schedule: Q01DX009 (ip), vehicle: Klucel (hydroxypropylcellulose) (HPC)
[11] = dose: 1111.11 mg/kg/injection, schedule: Q01DX005 (ip), vehicle: saline with Tween-80

O=c1ccc(=O)n(-c2ccccc2)[nH]1
survivor count [1]: 2 of 6
survivor count [2]: 0 of 6
survivor count [3]: 0 of 6
survivor count (dose: 400.0 mg/kg/injection, schedule: Q01DX009 (ip), vehicle: saline with Tween-80): 0 of 6

CCOC(=O)c1cc2c(=O)c3c(ccc4ccccc43)oc2n(C)c1=O
survivor count [4]: 4 of 5
survivor count [5]: 4 of 5

Cc1cc2c(C)c(-c3ccccc3)c(=O)oc2c(C#N)c1C
survivor count (dose: 120.0 mg/kg/injection, schedule: Q01DX005 (ip), vehicle: Klucel (hydroxypropylcellulose) (HPC)): 6 of 6
survivor count (dose: 240.0 mg/kg/injection, schedule: Q01DX005 (ip), vehicle: Klucel (hydroxypropylcellulose) (HPC)): 5 of 6

Cc1cc(C=C2C(=O)NC(=S)NC2=O)cc(C)c1O
T/C (dose: 50.0 mg/kg/injection, schedule: Q01DX005 (ip), vehicle: saline with Tween-80): 107, 110, 120, 126 % of control [5 of 6 alive]
survivor count [4]: 1 of 5, 2 of 6, 5 of 6
survivor count [5]: 0 of 5

NC(CO)C(=O)NC(CCC(=O)O)C(=O)NC(CO)C(=O)NC(CCC(=O)O)C(=O)NC(Cc1ccc(N(CCCl)CCCl)cc1)C(=O)O (stereo unspecified)
T/C (dose: 160.0 mg/kg/injection, schedule: Q04DX003 (ip), vehicle: water): 128 % of control

CCOC(=O)Nc1cc(NC/C(=N/O)c2ccc(C(F)(F)F)cc2)c([N+](=O)[O-])c(N)n1
survivor count (dose: 200.0 mg/kg/injection, schedule: Q01DX001 (ip), vehicle: saline with Tween-80): 6 of 6

CN(C)CCCN1c2ccccc2Sc2ccccc21
survivor count (dose: 75.0 mg/kg/injection, schedule: Q01DX009 (ip), vehicle: saline with Tween-80): 3 of 6
T/C (dose: 75.0 mg/kg/injection, schedule: Q01DX009 (ip), vehicle: saline): 127 % of control
survivor count (dose: 150.0 mg/kg/injection, schedule: Q01DX009 (ip), vehicle: saline with Tween-80): 3 of 6

Cc1c(-c2ccc(C3CCCCC3)cc2)nc2ccc(F)cc2c1C(=O)O
T/C (dose: 25.0 mg/kg/injection, schedule: Q01DX005 (ip), vehicle: Klucel (hydroxypropylcellulose) (HPC)): 132 % of control
T/C [6]: 136 % of control
T/C [7]: 146 % of control
T/C [8]: 146 % of control

O=C1c2c(Cl)c(Cl)c(Cl)c(Cl)c2C(=O)C2(Cl)CC=CCC12Cl (stereo unspecified)
survivor count [6]: 5 of 5
survivor count [7]: 4 of 5
survivor count [8]: 1 of 5

O=C(CCCl)NN=C(c1ccccc1)c1ccccc1
survivor count [1]: 5 of 6
survivor count [2]: 0 of 6
survivor count [3]: 0 of 6

Cc1ccc(C(=O)Nc2ccncc2)cc1
survivor count (dose: 25.0 mg/kg/injection, schedule: Q01DX009 (ip), vehicle: Klucel (hydroxypropylcellulose) (HPC)): 3 of 6
survivor count (dose: 50.0 mg/kg/injection, schedule: Q01DX009 (ip), vehicle: Klucel (hydroxypropylcellulose) (HPC)): 0 of 6
survivor count [9]: 0 of 6
survivor count [10]: 0 of 6

CCN(CC)Cc1c(C)nc2ccc(N(C)C)cc2c1Cl
survivor count [9]: 1 of 6
survivor count [10]: 0 of 6

CC(=O)O[C@H]1C(=O)[C@]2(C)[C@@H](OC(C)=O)CC3OC[C@@]3(OC(C)=O)[C@H]2[C@H](OC(=O)c2ccccc2)[C@]2(O)C[C@H](OC(=O)[C@H](OC(C)=O)[C@@H](NC(=O)c3ccccc3)c3ccccc3)C(C)=C1C2(C)C (stereo partly specified)
T/C (dose: 20.0 mg/kg/injection, schedule: Q01DX005 (ip), vehicle: DMSO): 132 % of control
T/C (dose: 200.0 mg/kg/injection, schedule: Q01DX005 (ip), vehicle: DMSO): 137 % of control

BrC[P+](CBr)(CBr)CBr
T/C (dose: 12.5 mg/kg/injection, schedule: Q01DX009 (ip), vehicle: saline with Tween-80): 143 % of control
T/C (dose: 25.0 mg/kg/injection, schedule: Q01DX009 (ip), vehicle: saline with Tween-80): 142 % of control
T/C [4]: 130 % of control
T/C (dose: 144.0 mg/kg/injection, schedule: Q01DX005 (ip), vehicle: saline with Tween-80): 128 and 130 % of control
T/C [5]: 142 and 144 % of control
T/C (dose: 240.0 mg/kg/injection, schedule: Q01DX005 (ip), vehicle: saline with Tween-80): 125 and 133 % of control
T/C (dose: 400.0 mg/kg/injection, schedule: Q01DX005 (ip), vehicle: saline with Tween-80): 144 (2×), 150, 152 % of control [4 of 6 alive]
T/C (dose: 666.6 mg/kg/injection, schedule: Q01DX005 (ip), vehicle: saline with Tween-80): 139 % of control
survivor count (dose: 666.67 mg/kg/injection, schedule: Q01DX005 (ip), vehicle: saline with Tween-80): 0 of 6
survivor count (dose: 800.0 mg/kg/injection, schedule: Q01DX005 (ip), vehicle: saline with Tween-80): 0 of 6
T/C [11]: 148 % of control [4 of 6 alive]
survivor count [11]: 0 of 6

CCC[CH2][Sn]([CH2]CCC)([n]1ccnc1)[n]1ccnc1
survivor count (dose: 12.5 mg/kg/injection, schedule: Q01DX005 (ip), vehicle: Klucel (hydroxypropylcellulose) (HPC)): 0 of 6
survivor count [6]: 0 of 6
survivor count [7]: 0 of 6
survivor count [8]: 0 of 6

COc1ccc(N=C2C(=Nc3ccc(OC)cc3)N(S(=O)(=O)c3ccc(C)cc3)C(=S)N2c2ccccc2)cc1
survivor count (dose: 200.0 mg/kg/injection, schedule: Q01DX005 (ip), vehicle: Klucel + Tween-80): 6 of 6

CCC12NC(=O)NC1(C)NC(=O)N2 (stereo unspecified)
survivor count (dose: 37.5 mg/kg/injection, schedule: Q01DX009 (ip), vehicle: saline with Tween-80): 3 of 6

CCCCCCCCCCCCCCCC(=O)N(CC#CCN(C(=O)CCCCCCCCCCCCCCC)C(C)CCCN(CC)CC)C(C)CCCN(CC)CC (stereo unspecified)
survivor count (dose: 100.0 mg/kg/injection, schedule: Q01DX009 (ip), vehicle: other): 6 of 6
survivor count (dose: 200.0 mg/kg/injection, schedule: Q01DX009 (ip), vehicle: other): 0 of 6
survivor count (dose: 400.0 mg/kg/injection, schedule: Q01DX009 (ip), vehicle: other): 0 of 6

N#Cc1ccc[n+](CC(=O)c2ccc3ccccc3c2)c1
survivor count [6]: 2 of 5
survivor count [7]: 0 of 5
survivor count [8]: 4 of 5

C[n+]1c(/C=C\c2ccc(Cl)cc2)ccc2ccccc21
survivor count (dose: 6.25 mg/kg/injection, schedule: Q01DX009 (ip), vehicle: saline with Tween-80): 3 of 6

C[n+]1ccc(Nc2ccc(NC(=O)c3ccc(Nc4cc[n+](C)c5ccc(N)cc45)cc3)cc2)cc1
T/C (dose: 1.73 mg/kg/injection, schedule: Q04DX003 (ip), vehicle: water): 143 % of control
T/C (dose: 1.94 mg/kg/injection, schedule: Q04DX003 (ip), vehicle: water): 130 % of control
survivor count (dose: 2.0 mg/kg/injection, schedule: Q01DX005 (iv), vehicle: suspension in saline): 3 of 6
T/C (dose: 3.24 mg/kg/injection, schedule: Q04DX003 (ip), vehicle: water): 130 % of control
survivor count (dose: 4.0 mg/kg/injection, schedule: Q01DX005 (iv), vehicle: suspension in saline): 0 of 6
T/C (dose: 5.4 mg/kg/injection, schedule: Q04DX003 (ip), vehicle: water): 140 % of control
survivor count (dose: 8.0 mg/kg/injection, schedule: Q01DX005 (iv), vehicle: suspension in saline): 0 of 6
survivor count (dose: 15.0 mg/kg/injection, schedule: Q04DX003 (ip), vehicle: water): 5 of 8
survivor count (dose: 16.0 mg/kg/injection, schedule: Q01DX005 (ip), vehicle: suspension in saline): 5 of 6
survivor count (dose: 16.0 mg/kg/injection, schedule: Q01DX005 (iv), vehicle: suspension in saline): 0 of 6
survivor count (dose: 32.0 mg/kg/injection, schedule: Q01DX005 (ip), vehicle: suspension in saline): 1 of 6
survivor count (dose: 32.0 mg/kg/injection, schedule: Q01DX005 (iv), vehicle: suspension in saline): 0 of 6
